± gives the standard deviation of the averaged measurements. Whole data set: some 3,800 compounds, median “cell shape (eccentricity) Z-score vs DMSO control” near 1.1, cut for the lowest 2% near -4.7. The list shows a part of the results.
system: human monocyte-derived macrophages (M0); test: cell shape (eccentricity) Z-score vs DMSO control; higher = more elongated, M2-like morphology; conditions: 20 µM; 24 h; macrophage state: M0 (M-CSF)

Row | Compound | cell shape (Z-score)
1 | CC(CC[C@]1(C)C2CCC=C(CO)[C@]2(C)CC[C@H]1C)CC(=O)O (stereo not given in full) | -0.00807
2 | CCCn1c(=O)c2nc(C3CCCC3)[nH]c2n(CCC)c1=O | 3.19
3 | C[C@@H]1CN([C@@H](C)CO)C(=O)c2cccc(NC(=O)Nc3ccccc3)c2O[C@@H]1CN(C)Cc1ccc(C(=O)Nc2ccccc2N)cc1 | -3.29
4 | CC(=O)CCC1C2C(O)C(C(C)C)C(OC(=O)/C=C/c3ccccc3)CC12C (stereo not given) | 1.95
5 | CC1CC(=O)C2=C(CCC3(O)C2C(=O)c2cccc(O)c2C3O)C1 (stereo not given) | 2.98
6 | C[C@@H]1O[C@@H](O[C@H]2[C@H](O[C@H]3CC[C@@]4(C)C(CC[C@]5(C)C4CC=C4C6CC(C)(C)CC[C@]6(C(=O)O[C@@H]6O[C@H](CO[C@@H]7O[C@H](CO)[C@@H](O[C@@H]8O[C@@H](C)[C@H](O)[C@@H](O)[C@H]8O)[C@H](O)[C@H]7O)[C@@H](O)[C@H](O)[C@H]6O)CC[C@]45C)[C@]3(C)CO)OC[C@H](O)[C@@H]2O)[C@H](O)[C@H](O)[C@H]1O (stereo not given in full) | -1.37
7 | C=C1/C(=C\C=C2/CCC[C@]3(C)[C@@H]([C@H](C)/C=C/[C@@H](O)C4CC4)CC[C@@H]23)C[C@@H](O)C[C@@H]1O | -1.82
8 | Cn1cc(C(=O)OCC2CCN(CCNS(C)(=O)=O)CC2)c2ccccc21 | 4.04
9 | CCCCC(=O)N(Cc1ccc(-c2ccccc2-c2nn[nH]n2)cc1)[C@H](C(=O)O)C(C)C | 4.67
10 | Nc1ccc(C(=O)Oc2ccccc2)c(O)c1 | 0.623
11 | O=C(/C=C/c1cccc(S(=O)(=O)Nc2ccccc2)c1)NO | 6.89
12 | COc1cc(-c2oc3cc(O)cc(O)c3c(=O)c2O[C@@H]2O[C@H](CO)[C@@H](O)[C@H](O)[C@H]2O)ccc1O[C@@H]1O[C@H](CO)[C@@H](O)[C@H](O)[C@H]1O | 0.723 ± 0.78
13 | O=C1c2cccc(O)c2C(=O)c2c(O)cc(CO)cc21 | 2.58
14 | COc1c(C)c(O)c(C)c(O)c1C(=O)CCc1ccccc1 | 0.153
15 | CC1(C)CC[C@@]2(C(=O)O)C(C1)C1=CCC3[C@@]4(C)CC[C@H](O)C(C)(C)C4CC[C@@]3(C)[C@]1(C)C[C@H]2O (stereo not given in full) | 2.77
16 | CCCCc1nc2ccn(CC(=O)N(C)C)c(=O)c2n1Cc1ccc(-c2ccccc2-c2nnn[nH]2)cc1 | 1.26
17 | C=C(C(=O)O[C@H]1C[C@]2(C)C(C(C=O)CC[C@H]2O)[C@H]2OC(=O)C(=C)[C@H]12)C(O)CO (stereo not given in full) | 0.931
18 | NC(=O)Nc1sc(-c2ccc(F)cc2)cc1C(N)=O | 5.51
19 | C/C(=C/CCC(CO)C1CCC2(C)C3CCC4C(C)(C)C(OC5OC(CO)C(O)C(O)C5O)CC(O)C45CC35CCC12C)COC1OC(CO)C(O)C(O)C1O (stereo not given) | 0.127
20 | N=C(N)SCCc1ccc(OCc2ccc([N+](=O)[O-])cc2)cc1 | 0.464
21 | CCOC(=O)[C@@H](CCc1ccccc1)N[C@H](C)C(=O)N1[C@@H]2CCC[C@H]2C[C@H]1C(=O)O | -0.36
22 | COC(=O)C1=CO[C@@H](O[C@@H]2O[C@H](CO)[C@@H](O)[C@H](O)[C@H]2O)[C@H]([C@H](C)OC(C)=O)[C@@H]1CC(=O)O | -1.45
23 | C=CC(C)(O)CC/C=C(\CO)C(=O)O[C@@H]1C(C)O[C@@H](O[C@](C)(C=C)CC/C=C(\CO)C(=O)O[C@H]2C[C@@]3(C(=O)O[C@@H]4OC(CO)[C@@H](O)[C@@H](O)[C@@H]4O[C@@H]4OC(C)[C@H](O[C@@H]5O[C@@H](CO)[C@H](O)[C@@H]5O)[C@@H](O[C@@H]5OC(CO)[C@@H](O)[C@@H](O)[C@@H]5O)[C@@H]4O)C(CC2(C)C)C2=CCC4[C@@]5(C)CC[C@H](O[C@@H]6OC(CO[C@@H]7OC(C)[C@H](O)[C@@H](O)[C@@H]7O[C@@H]7OC[C@@H](O)[C@@H](O)[C@@H]7O)[C@@H](O)[C@@H](O)[C@@H]6NC(C)=O)C(C)(C)C5CC[C@@]4(C)[C@]2(C)C[C@H]3O)[C@@H](O)[C@@H]1O (stereo not given in full) | 6.07
24 | COC(=O)C1=CO[C@@H](O[C@@H]2O[C@H](CO)[C@@H](O)[C@H](O)[C@H]2O)[C@H]2[C@@H]1C=CC21C=C([C@H](C)O)C(=O)O1 (stereo not given in full) | 2.96
25 | COC1=CC(=O)O[C@@H](/C=C/c2ccccc2)[C@@H]1O | -1.25

Row | Compound | cell shape (Z-score)
26 | CC[N+](C)(CC)CC(=O)Nc1c(C)cccc1C | -0.632
27 | CC(CCCCC(=O)Nc1ccc(C(F)(F)F)cc1)NCCc1c[nH]cn1 (stereo not given) | -3.62
28 | COC1=CC(C)c2c(c(OC)c3occ(C)c3c2C)C1=O (stereo not given) | 0.208
29 | CCCCc1nc(Cl)c(CO)n1Cc1ccc(-c2ccccc2-c2nnn[nH]2)cc1 | 0.487
30 | O=C(O)CCCN1C(=O)c2cccc3cccc(c23)C1=O | 1.83
31 | O=C(/C=C/c1ccc(O)c(O)c1)c1ccc(O)cc1O | -2.96
32 | C=C1[C@]2(C)C[C@@H]3C(=C)[C@@]4(C=CC(=O)OC4(C)C)CC[C@@]3(C)[C@]13C(=O)O[C@H](C)[C@]3(O)C2=O | 0.728 ± 1.9
33 | CNCCC(Oc1ccc(C(F)(F)F)cc1)c1ccccc1 (stereo not given) | -4.88
34 | C[C@@H]1O[C@@H](O[C@H]2[C@H](OC(=O)[C@]34CCC(C)(C)C[C@H]3C3=CCC5[C@@]6(C)C[C@H](O)[C@H](O[C@@H]7O[C@H](C(=O)O)[C@@H](O)[C@H](O)[C@H]7O)[C@@](C)(CO)C6[C@H](O)C[C@@]5(C)[C@]3(C)C[C@H]4O)O[C@@H](CO)[C@@H]2O)[C@H](O)[C@H](O)[C@H]1O[C@@H]1OC[C@@H](O)[C@H](O[C@H]2OC[C@](O)(CO)[C@H]2O)[C@H]1O (stereo not given in full) | -10.1
35 | COc1cc(S(C)=O)ccc1-c1nc2ncccc2[nH]1 (stereo not given) | -0.92
36 | CN(C)CCCOc1nn(Cc2ccccc2)c2ccccc12 | 2.34
37 | O=S(=O)(c1cccc2c(O)nccc12)N1CCCNCC1 | 0.439
38 | COc1cc(O)c(C(C)=O)c(OC)c1 | 1.4
39 | CC(C)[C@H]1CC[C@H](C(=O)N[C@@H](Cc2ccccc2)C(=O)O)CC1 | 3.86
40 | Cc1c(CC(C)(C)C(=O)O)n(Cc2ccc(Cl)cc2)c2ccc(F)cc12 | 2.64
41 | CCc1c(O)cc(OC)c2c1O[C@H](C)CC2=O | 1.92
42 | O=C(O)[C@@H]1CCCC[C@@H]1C(=O)N1CCc2ccccc2[C@H]1CN1C(=O)c2ccccc2C1=O | -1.26
43 | CN1CCc2c(c3ccccc3n2Cc2ccccc2)C1 | 2.69
44 | CCN(CC)CCOC(=O)C1(c2ccc([N+](=O)[O-])cc2)CCCC1 | 2.42
45 | COc1cccc2cc(-c3nc([C@H]4CC[C@H](C(=O)O)CC4)n4ncnc(N)c34)[nH]c12 | 2.16
46 | CC1=C2C(O)C(=O)OC3CC4C(C)(C)C(=O)C=C[C@]4(C)C(CC1)[C@]23C (stereo not given in full) | -1.55
47 | CC1OC(OC2C(CO)OC(OC(=O)[C@]34CCC(C)(C)CC3C3=CCC5[C@@]6(C)CC[C@H](OC7OC(C)C(OC8OCC(O)(COC9OCC(O)C(OC%10OCC(OC%11OCC(O)(CO)C%11O)C(O)C%10O)C9O)C8O)C(O)C7O)C(C)(C)C6CC[C@@]5(C)[C@]3(C)CC4)C(O)C2O)C(O)C(O)C1O (stereo not given in full) | 2.74
48 | CC12CCC3c4ccc(O)cc4CCC3C1CCC2=O (stereo not given) | 0.327
49 | CCCn1c(=O)c2[nH]c(C34CC5CC(CC3C5)C4)nc2n(CCC)c1=O | -0.766
50 | C=C1CCC2C(CC2(C)C)C(=O)CCC1O (stereo not given) | -1.93

Single entries from the list:
cell shape (Z-score), C=C1[C@]2(C)C[C@@H]3C(=C)[C@@]4(C=CC(=O)OC4(C)C)CC[C@@]3(C)[C@]13C(=O)O[C@H](C)[C@]3(O)C2=O is entered as 0.728 ± 1.9
cell shape (Z-score), COc1cccc2cc(-c3nc([C@H]4CC[C@H](C(=O)O)CC4)n4ncnc(N)c34)[nH]c12 is entered as 2.16
cell shape (Z-score), CCc1c(O)cc(OC)c2c1O[C@H](C)CC2=O is entered as 1.92
cell shape (Z-score), CCN(CC)CCOC(=O)C1(c2ccc([N+](=O)[O-])cc2)CCCC1 is entered as 2.42
cell shape (Z-score), CC[N+](C)(CC)CC(=O)Nc1c(C)cccc1C is entered as -0.632

The results go on:

Row | Compound | cell shape (Z-score)
51 | C=C[C@]1(C)CC[C@H]([C@H](C)C(=O)/C=C/C(C)(C)O)O1 | 1.96
52 | N#Cc1cnc2c(Cl)cc(NCc3cnc[nH]3)cc2c1Nc1ccc(F)c(Cl)c1 | 3.5
53 | COCc1nc2c(=O)n(C)c(=O)n(CC(C)C)c2[nH]1 | 0.361
54 | CCCCCCCCCCCCCCCCCCc1ccc(C(=O)C=CC(=O)O)cc1 | 0.47
55 | CC1CCC2(C)C(CC(O)C(O)C2(O)CO)C1(C)CCc1ccoc1 (stereo not given) | 0.144
56 | CCC(C)CCC(O)C1=C(C)C(O)OC1=O (stereo not given) | 1.6
57 | COc1ccc(/C=C/C(=O)O[C@H]2[C@H](OC3C4O[C@]4(CO)[C@H]4C(O[C@@H]5O[C@H](CO)[C@@H](O)[C@H](O)[C@H]5O)OC=C[C@@H]34)O[C@@H](C)[C@H](O)[C@H]2O)cc1 (stereo not given in full) | 0.623
58 | Clc1cccc(Cl)c1N=C1NCCN1 | 0.157
59 | O=C1C(CCS(=O)c2ccccc2)C(=O)N(c2ccccc2)N1c1ccccc1 (stereo not given) | 1.88
60 | CC(=O)Oc1cccc(C(=O)O)c1OC(C)=O | 0.0206
61 | CN(C)CCC=C1c2ccccc2CCc2ccccc21 | -2.82
62 | CC(C)(C)c1cc(C(=O)/C=C/c2ccc(C(=O)O)cc2)cc(C(C)(C)C)c1 | 5.51
63 | CC(=O)O[C@H]1C[C@@]2(C)[C@@H](C[C@@H](O)C3[C@]2(C)CC[C@H]2[C@H](C)[C@H](O)CC[C@]32C)/C1=C(/CCC=C(C)C)C(=O)O (stereo not given in full) | 0.356
64 | COc1cc2cc(Oc3ccc4ccc(=O)oc4c3)c(=O)oc2cc1OC1OC(COC(=O)CC(C)(O)CC(=O)O)C(O)C(O)C1O (stereo not given) | -0.188
65 | COc1cc(O)c2c(c1)OC(c1ccc(O)cc1)CC2=O (stereo not given) | -0.856
66 | CCCCCCCC(=O)O | 1.79
67 | Cc1ccc(-c2cc(C(F)(F)F)nn2-c2ccc(S(N)(=O)=O)cc2)cc1 | 1.41
68 | CC1CC(=O)c2c(ccc3c2C(=O)c2c(O[C@@H]4O[C@@H](C)[C@H](O)[C@@H](O)[C@H]4O)cccc2C3=O)C1 (stereo not given in full) | -0.371 ± 0.36
69 | COCc1cc(O)c(O)c(O)c1-c1c(COC)cc(O)c(O)c1O | 0.769
70 | CCOC(=O)[C@H](CCc1ccccc1)N[C@@H](C)C(=O)N1[C@H](C(=O)O)C[C@H]2CCCC[C@@H]21 | -0.909
71 | C=C1C2CCC3[C@]4(C)CCC[C@@](C)(C(=O)O)C4CC[C@]3(C2)C1OC(C)=O (stereo not given in full) | 0.977
72 | CC(C)=C1C[C@@]2(CO)C(=CC1=O)CC[C@@H](O)[C@@H]2C | 1.67
73 | O=C(Nc1ccc(C(=O)O)c(O)c1)c1ccccc1 | 1.5
74 | COc1cc(O)c2c(c1C)C(C)C(O)(CO)OC2=O (stereo not given) | 0.579
75 | CC(=O)Oc1cc2c(c(C)c1OC(C)=O)CC=C1[C@@]2(C)CC[C@@]2(C)C3C[C@](C)(C(=O)O)CC[C@]3(C)CC[C@]12C (stereo not given in full) | -13.8
